At least one compound was matched to its structure with a doubt left.
Key:
Experiment in all cases: RPP microarray, phospho-specific antibody probing of cell lysates
Type in all cases: cell-based
[1] = system: Akt (Ser473) phosphorylation; conditions: Jurkat cells stimulated through CD28 in the presence of the inhibitor; lysates after 10 minutes
Description: (§1) FIG. 2. Applications of reverse-phase protein microarrays. (A) Kinetics of PLCγ1 (Y783) phosphorylation in Jurkat T cells following stimulation with anti-CD3 (pink triangle), anti-CD28 (green circle), both antibodies (blue squares), or isotype control antibodies (empty squares) over 30 minutes. Left panel: Phosphorylation kinetics unadjusted for total PLCγ1 levels. Middle Panel: Total PLCγ1 levels. Right panel: Ratiometric data on phosphorylation kinetics (phospho-PLCγ1/total PLCγ1). See text for details. (B) Phosphorylation kinetics of four signaling proteins (PLCγ1, Akt, MEK1/2, and p44/42 MAPK) in wildtype Jurkat T cells (black square) and J.gamma1, a mutant Jurkat line deficient in PLCγ1 (empty circle), stimulated with both anti-CD3 and CD28 antibodies. […] Jurkats T cells were stimulated with either anti-CD3 or anti-CD28 antibodies in the presence of one of three kinase inhibitors (see text for details). Lysates were collected after 10 minutes of stimulation, spotted on slides, and probed with four phospho-specific antibodies. Representative spots of p-p44/42 MAPK and p-MEK1/2 are shown for anti-CD3 stimulated cells and p-Akt (Ser473) and p-PDK1 for anti-CD28 treated cells.
(§2) To fabricate the protein microarrays, we used a contact-printing robotic microarrayer to deliver nanoliter (˜6 nl) volumes of whole cell lysates onto nitrocellulose-coated slides. FAST slides (Schleicher and Schuell BioSciences, Dassel, Germany). Depending on the experimental setup, two different formats of FAST slides were used. In experiments where the number of samples was greater than the number of analytes measured, slides with a single pad capable of holding over 2000 lysate spots were used. In our screening experiments where the number of analytes exceeds the number of samples, we used slides carrying eight sectored pads or subarrays for multiplex analysis. Under our current configuration, a maximum of 24 spots can be fitted onto each individual pad (6 mm×6 mm).
(§3) For small-scale experiments, we used a precision 8-pin manual microarrayer system (Microcaster system from Schleicher & Schuell). […] The protein lysates dried within seconds of printing and were tightly bound to the nitrocellulose platform via electrostatic interactions.

[2] = system: MEK1/2 phosphorylation; conditions: Jurkat cells stimulated through CD3 in the presence of the inhibitor; lysates after 10 minutes
Description: as §1, §2, §3

[3] = system: p44/42 MAPK phosphorylation; conditions: Jurkat cells stimulated through CD3 in the presence of the inhibitor; lysates after 10 minutes
Description: as §1, §2, §3

[4] = system: PDK1 phosphorylation; conditions: Jurkat cells stimulated through CD28 in the presence of the inhibitor; lysates after 10 minutes; one of the 'other 3 kinases' (named)
Description: as §1, §2, §3

## O=c1cc(N2CCOCC2)oc2c(-c3ccccc3)cccc12 [LY294002]
[1]
  phosphorylation of Akt (Ser473): reduced
[2]
  phosphorylation of MEK1/2: had no effect
[3]
  phosphorylation of p44/42 MAPK: had no effect
[4]
  phosphorylation of PDK1: had no effect
